Experimental data published in publication doi:10.1101/2024.10.28.620578.
These are yes or no findings as the source states them, for the method shown. Binding seen in cells or lysates may run through a third protein. Some binding calls cover weakened binding; strength is not graded here. Where a sequence is shown, tags or fusion partners need not be part of it.

Protein sequences, listed by entry. Tags and fused reporters are not part of them.
UniProt P38811: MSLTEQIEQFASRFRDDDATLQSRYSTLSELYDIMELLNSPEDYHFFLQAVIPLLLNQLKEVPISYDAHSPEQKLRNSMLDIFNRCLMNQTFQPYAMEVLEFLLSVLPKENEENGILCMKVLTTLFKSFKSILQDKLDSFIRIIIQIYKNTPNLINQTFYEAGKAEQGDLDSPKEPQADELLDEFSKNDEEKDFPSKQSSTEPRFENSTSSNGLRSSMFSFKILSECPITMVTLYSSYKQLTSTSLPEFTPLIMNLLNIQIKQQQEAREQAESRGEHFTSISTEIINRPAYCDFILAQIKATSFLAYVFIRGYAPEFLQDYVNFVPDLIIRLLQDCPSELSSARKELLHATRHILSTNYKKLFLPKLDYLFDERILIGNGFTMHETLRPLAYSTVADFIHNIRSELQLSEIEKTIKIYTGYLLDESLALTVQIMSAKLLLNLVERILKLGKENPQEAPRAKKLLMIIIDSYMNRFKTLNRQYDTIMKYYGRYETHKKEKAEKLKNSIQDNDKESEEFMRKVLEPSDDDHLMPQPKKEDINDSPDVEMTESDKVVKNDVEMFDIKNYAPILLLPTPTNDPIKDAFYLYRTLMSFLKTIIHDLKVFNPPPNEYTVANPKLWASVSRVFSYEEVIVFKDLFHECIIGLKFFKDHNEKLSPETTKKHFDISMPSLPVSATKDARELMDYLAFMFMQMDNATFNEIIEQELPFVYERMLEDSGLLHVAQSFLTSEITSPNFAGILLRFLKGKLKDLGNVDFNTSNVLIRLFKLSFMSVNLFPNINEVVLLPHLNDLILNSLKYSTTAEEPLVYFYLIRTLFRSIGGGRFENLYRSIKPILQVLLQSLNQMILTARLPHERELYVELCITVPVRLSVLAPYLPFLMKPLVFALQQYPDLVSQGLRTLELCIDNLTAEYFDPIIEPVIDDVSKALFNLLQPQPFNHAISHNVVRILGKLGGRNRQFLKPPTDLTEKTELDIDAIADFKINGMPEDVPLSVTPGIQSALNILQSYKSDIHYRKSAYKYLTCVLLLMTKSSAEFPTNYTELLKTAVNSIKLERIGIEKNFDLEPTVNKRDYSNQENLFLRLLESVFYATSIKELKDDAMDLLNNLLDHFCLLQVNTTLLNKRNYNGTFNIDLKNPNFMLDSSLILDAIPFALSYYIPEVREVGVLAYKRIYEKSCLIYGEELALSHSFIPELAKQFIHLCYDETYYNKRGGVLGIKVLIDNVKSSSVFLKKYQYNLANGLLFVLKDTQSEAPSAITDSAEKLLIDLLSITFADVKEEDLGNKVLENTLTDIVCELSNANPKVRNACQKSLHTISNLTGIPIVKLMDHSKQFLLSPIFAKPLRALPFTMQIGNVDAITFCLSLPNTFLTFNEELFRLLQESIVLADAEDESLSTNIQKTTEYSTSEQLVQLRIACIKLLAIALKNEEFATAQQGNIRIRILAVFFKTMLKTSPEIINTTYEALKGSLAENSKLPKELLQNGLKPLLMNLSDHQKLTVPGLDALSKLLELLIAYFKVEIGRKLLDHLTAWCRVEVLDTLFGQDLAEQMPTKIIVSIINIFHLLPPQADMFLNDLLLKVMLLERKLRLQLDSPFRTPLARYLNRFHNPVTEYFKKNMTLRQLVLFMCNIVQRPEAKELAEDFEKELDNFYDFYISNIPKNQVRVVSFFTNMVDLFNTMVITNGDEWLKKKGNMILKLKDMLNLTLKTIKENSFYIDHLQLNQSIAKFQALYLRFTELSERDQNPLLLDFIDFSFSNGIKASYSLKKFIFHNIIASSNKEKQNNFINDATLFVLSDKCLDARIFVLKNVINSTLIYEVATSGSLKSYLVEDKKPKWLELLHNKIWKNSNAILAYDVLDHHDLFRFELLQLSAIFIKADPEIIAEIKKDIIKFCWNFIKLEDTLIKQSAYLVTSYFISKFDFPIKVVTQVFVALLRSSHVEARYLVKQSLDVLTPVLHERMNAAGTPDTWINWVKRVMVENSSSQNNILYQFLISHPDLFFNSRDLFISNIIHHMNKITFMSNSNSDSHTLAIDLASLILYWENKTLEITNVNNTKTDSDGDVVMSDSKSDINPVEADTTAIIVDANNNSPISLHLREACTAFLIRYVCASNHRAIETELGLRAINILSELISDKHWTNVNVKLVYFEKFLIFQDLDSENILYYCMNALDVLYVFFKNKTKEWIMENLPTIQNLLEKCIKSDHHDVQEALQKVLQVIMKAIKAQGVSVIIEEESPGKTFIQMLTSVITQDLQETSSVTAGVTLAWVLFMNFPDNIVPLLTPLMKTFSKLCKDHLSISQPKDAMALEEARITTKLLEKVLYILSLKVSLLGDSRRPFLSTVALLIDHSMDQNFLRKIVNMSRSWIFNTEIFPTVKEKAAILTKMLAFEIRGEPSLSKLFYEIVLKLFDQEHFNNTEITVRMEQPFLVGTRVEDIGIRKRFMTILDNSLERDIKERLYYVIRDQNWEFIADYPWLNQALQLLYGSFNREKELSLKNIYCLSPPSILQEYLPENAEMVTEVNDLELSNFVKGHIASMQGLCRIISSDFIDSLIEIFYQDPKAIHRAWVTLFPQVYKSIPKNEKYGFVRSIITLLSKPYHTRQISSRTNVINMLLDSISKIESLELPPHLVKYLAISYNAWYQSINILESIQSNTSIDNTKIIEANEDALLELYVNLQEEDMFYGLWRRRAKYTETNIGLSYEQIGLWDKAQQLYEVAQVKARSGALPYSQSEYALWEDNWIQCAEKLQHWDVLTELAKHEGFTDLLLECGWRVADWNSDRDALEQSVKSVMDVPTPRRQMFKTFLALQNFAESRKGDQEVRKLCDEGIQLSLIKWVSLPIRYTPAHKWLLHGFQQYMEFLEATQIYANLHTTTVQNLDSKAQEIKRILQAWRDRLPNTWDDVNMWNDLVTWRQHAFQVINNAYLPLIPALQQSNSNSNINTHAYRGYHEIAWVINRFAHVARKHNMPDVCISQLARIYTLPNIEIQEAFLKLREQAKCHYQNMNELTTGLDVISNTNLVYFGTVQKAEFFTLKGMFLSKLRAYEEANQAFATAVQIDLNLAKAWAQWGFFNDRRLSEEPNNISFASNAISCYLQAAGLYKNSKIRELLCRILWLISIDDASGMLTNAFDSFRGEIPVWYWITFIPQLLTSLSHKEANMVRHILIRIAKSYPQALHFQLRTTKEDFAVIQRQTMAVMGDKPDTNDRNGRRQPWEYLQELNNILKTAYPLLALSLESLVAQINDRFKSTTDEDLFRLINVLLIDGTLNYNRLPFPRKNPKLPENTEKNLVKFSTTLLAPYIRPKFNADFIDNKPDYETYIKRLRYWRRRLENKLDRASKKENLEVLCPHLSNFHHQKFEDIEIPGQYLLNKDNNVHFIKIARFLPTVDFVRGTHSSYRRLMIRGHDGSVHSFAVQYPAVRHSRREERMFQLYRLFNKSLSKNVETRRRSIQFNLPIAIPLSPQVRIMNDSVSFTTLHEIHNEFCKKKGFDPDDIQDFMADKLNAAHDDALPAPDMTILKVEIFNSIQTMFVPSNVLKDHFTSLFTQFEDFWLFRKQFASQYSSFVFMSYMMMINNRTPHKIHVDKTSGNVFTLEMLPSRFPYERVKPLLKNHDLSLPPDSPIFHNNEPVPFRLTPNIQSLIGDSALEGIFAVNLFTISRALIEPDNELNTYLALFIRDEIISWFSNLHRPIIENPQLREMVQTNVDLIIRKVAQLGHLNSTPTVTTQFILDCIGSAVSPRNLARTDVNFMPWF

T1: Sfp1-TAP fusion protein (S. cerevisiae) (UniProt P32432)
T1 sequence: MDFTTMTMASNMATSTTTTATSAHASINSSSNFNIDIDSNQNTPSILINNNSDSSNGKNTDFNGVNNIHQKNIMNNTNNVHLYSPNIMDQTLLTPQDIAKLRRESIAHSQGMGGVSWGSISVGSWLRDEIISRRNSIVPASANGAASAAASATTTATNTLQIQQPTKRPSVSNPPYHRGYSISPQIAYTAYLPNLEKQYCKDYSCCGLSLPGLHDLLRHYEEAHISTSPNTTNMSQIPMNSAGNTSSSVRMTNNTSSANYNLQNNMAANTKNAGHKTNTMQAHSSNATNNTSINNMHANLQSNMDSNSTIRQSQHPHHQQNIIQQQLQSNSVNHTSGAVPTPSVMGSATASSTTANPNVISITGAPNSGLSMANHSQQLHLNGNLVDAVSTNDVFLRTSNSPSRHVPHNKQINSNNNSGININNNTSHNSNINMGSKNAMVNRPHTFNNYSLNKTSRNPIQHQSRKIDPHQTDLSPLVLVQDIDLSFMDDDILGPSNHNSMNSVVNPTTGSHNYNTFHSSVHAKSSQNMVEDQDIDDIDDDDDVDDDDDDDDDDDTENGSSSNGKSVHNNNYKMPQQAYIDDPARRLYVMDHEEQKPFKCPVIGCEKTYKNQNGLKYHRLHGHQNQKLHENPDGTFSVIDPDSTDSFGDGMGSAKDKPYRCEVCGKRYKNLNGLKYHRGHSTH


The molecules below were run against T1, Sfp1-TAP fusion protein (S. cerevisiae) (assay: co-IP).

Row | Molecule | binding
1 | Arp4 (protein, UniProt P80428 1-489) MSNAALQVYGGDEVSAVVIDPGSYTTNIGYSGSDFPQSILPSVYGKYTADEGNKKIFSEQSIGIPRKDYELKPIIENGLVIDWDTAQEQWQWALQNELYLNSNSGIPALLTEPVWNSTENRKKSLEVLLEGMQFEACYLAPTSTCVSFAAGRPNCLVVDIGHDTCSVSPIVDGMTLSKSTRRNFIAGKFINHLIKKALEPKEIIPLFAIKQRKPEFIKKTFDYEVDKSLYDYANNRGFFQECKETLCHICPTKTLEETKTELSSTAKRSIESPWNEEIVFDNETRYGFAEELFLPKEDDIPANWPRSNSGVVKTWRNDYVPLKRTKPSGVNKSDKKVTPTEEKEQEAVSKSTSPAANSADTPNETGKRPLEEEKPPKENNELIGLADLVYSSIMSSDVDLRATLAHNVVLTGGTSSIPGLSDRLMTELNKILPSLKFRILTTGHTIERQYQSWLGGSILTSLGTFHQLWVGKKEYEEVGVERLLNDRFR | binds
2 | Eaf1 (protein, UniProt Q06337 1-982) MSSRPSSAVPNSASLSEDQSSDRSKFPKADDLIDERDRKLTELYCVSRLNQLLELTDENKLRKEIDAFLKKNDIRRGIRFDEASLPKLLHTAATPITKKKLKDVNLINVPNQRLSDSKMSRELPENSENVSVKSESHFVPSHDNSIRENMMDSLRPAEKTGGMWNKRPLESTMGGEEERHEKRQKMQSQSLESSNNSEMASLPISPRPPVPNALAHYTYYENIEYPPADPTEVQPAVKFKDPLIKNIMAKEIDTSDHYNENNVDALETVFLLMNDYIPSKIPQALPLAELKYMSQTLPLINLIPRAHKALTTNIINNALNEARITVVGSRIEELRRLGLWSLRQPKRFIDPWKQHNTHQNILLEEAKWMQADFKEGHKYKVAICTAMAQAIKDYWTYGEICCVKRKTLLPGKENKLSDDGRISEKSGRPSDTSRNDSDISIAGKDDIGIIANVDDITEKESAAANDNDENGKNEAGAKSDFDFADGLLSQEGAHDQIISSIDTKLLLKKPSSSSEVVLIQHEVAASSALIETEESKKELAPPFKLSIFVDELNTFEKTLIQDLPLYNGINEERPKKDDSLPFIPISKSVVSLDDNGFYKLLERQLIDEEPSISQLSKRRGMFYGNRRNHYLRPPAVPSLRYLQNRTPTIWLSEDDQELVKNINTYGYNWELISAHMTHRLTYSYLSNIERRTPWQCFERFVQLNERFNFSDLKGPRAHSAQQWLIEAHKFQQRQNRRISPLGVNTESIQRGHRRLRWASMFEAIRKCMKKRENTPRPNPTQPRKPLDCKNMKVPTPAEMSLLKAQRDEALRRDIQLRRTVKNRLQQRQQQSQQAHSSRAQSPIPSNGKSSSNLARNGQASAPRPNQKQYTEQDIIESYSRKLLEQKPDIGPEMALKAAKNYYRTLREQQQQLKQHQIQQQRQQLQEESSHVQQLQQLQPGSQAPPPKSSPSQSSLSNISNINSAPRIKSPTPQEILQRFQKQ | binds

The next lines start with the values.

Row | binding | Molecule
3 | binds | Tra1 (from UniProt P38811 1-3744)
4 | binds | Esa1 (enzyme, UniProt Q08649 1-445) MSHDGKEEPGIAKKINSVDDIIIKCQCWVQKNDEERLAEILSINTRKAPPKFYVHYVNYNKRLDEWITTDRINLDKEVLYPKLKATDEDNKKQKKKKATNTSETPQDSLQDGVDGFSRENTDVMDLDNLNVQGIKDENISHEDEIKKLRTSGSMTQNPHEVARVRNLNRIIMGKYEIEPWYFSPYPIELTDEDFIYIDDFTLQYFGSKKQYERYRKKCTLRHPPGNEIYRDDYVSFFEIDGRKQRTWCRNLCLLSKLFLDHKTLYYDVDPFLFYCMTRRDELGHHLVGYFSKEKESADGYNVACILTLPQYQRMGYGKLLIEFSYELSKKENKVGSPEKPLSDLGLLSYRAYWSDTLITLLVEHQKEITIDEISSMTSMTTTDILHTAKTLNILRYYKGQHIIFLNEDILDRYNRLKAKKRRTIDPNRLIWKPPVFTASQLRFAW
